Results published in PubChem BioAssay AID504467 (National Center for Advancing Translational Sciences (NCATS), 2011).
About 7,700 (2.3%) of roughly 330,000 compounds were called active. The shares of active, inactive and inconclusive entries below differ from those in the screen. The call rests on the fitted dose curve; in most records, active means well fitted inhibition curve with a large enough effect; inconclusive means small, poorly fitted or top-dose-only effect, or effect the other way; inactive means flat fitted curve, though single readings scatter. A potency beside an inconclusive call is a rough fit, not a confirmed value.

experiment: qHTS screen for small molecules that inhibit ELG1-dependent DNA repair in human embryonic kidney (HEK293T) cells expressing luciferase-tagged ELG1; conditions: HEK293T ELG1-luciferase reporter, luminescence, 16 h, DNA damage induced by 5-fluorouridine; activity change, negative = inhibition: at 46.1 µM (top of the series); further: nearly all actives have a fitted effect of over 55% in size
How it was run: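 Overnight (16 hr) co-exposure of 2,000 cells/well to 5-fluorouridine and compound at 37 °C preceded detection. Luciferase was quantified via ONE-Glo luminescence; loss of signal denotes inhibition.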
On the % scale 0 is the no-effect control and ±100 the full control effect; potency means the concentration at half of the fitted maximal effect.

| Compound | Potency | activity change, negative = inhibition |
| --- | --- | --- |
| CC(=O)C(Sc1ncnc2c1nnn2-c1ccc(F)cc1)C(=O)N(C)C (stereo unspecified) | inconclusive: 23.1 µM [activator, partial curve] | – |
| O=C(CSCc1ccccc1)Nc1ccc2c(c1)OCO2 | inconclusive: 8.2 µM [activator, partial curve] | – |
| CC[N+]12CCC(CC1)C(C(O)(c1ccccc1)c1ccccc1)C2 (stereo unspecified) | inconclusive: 11.6 µM [activator, partial curve, poor fit] | – |
| CNC(=O)Nc1ccc(C(=O)N/N=C\C23CC[C@@H](O)CC2(O)CC[C@@H]2[C@@H]3CCC3(C)C(C4=CC(=O)OC4)CCC23O)cc1 (stereo partly specified) | – | inactive: -12.7% |
| CC(=O)c1c(C)n(CC2CCCO2)c2ccc(O)cc12 (stereo unspecified) | – | inactive: -9.89% |
| COC(=O)C1=C(c2cccc(C#N)c2)C[C@@H]2CC[C@H]1N2C(=O)NCc1cc(C)oc1C(F)(F)F | – | inactive: -1.93% |
| C=C1C(=O)O[C@@H]2C[C@@H](C)[C@@H]3C=CC(=O)[C@@]3(C)[C@@H](O)[C@H]12 | active: 4.11 µM | – |
| O=C(CNC(=O)c1ccc(Br)cc1)Nc1ccc(Br)cc1C(=O)c1ccccc1 | – | inactive: -14.7% |
| CCN(C(=O)COC(=O)Cc1ccccc1)c1c(N)n(Cc2ccccc2)c(=O)[nH]c1=O | – | inactive: 10.3% |
| CCCCCCn1c(=O)c(C(=O)Nc2nc(CC(=O)OCC)cs2)c(O)c2ccccc21 | active: 1.64 µM | – |
| CCc1ccc(-c2nn(Cc3ccccc3)cc2C=O)cc1 | inconclusive: 10.3 µM [activator, partial curve] | – |
| COC(=O)c1ccc2ccn(CC(=O)NC(C)C)c2c1 | inconclusive: 20.6 µM [activator, partial curve, poor fit] | – |
| COC(=O)C1=C(c2ccc(OC(F)(F)F)cc2)C[C@@H]2CC[C@H]1N2C(=O)NCCOc1ccccc1 | – | inactive: -28.3% |
| CCOP(=O)(OCC)C(NC(=O)NC)C(N)=O (stereo unspecified) | inconclusive: 16.4 µM [activator, partial curve, poor fit] | – |
| CCOC(=O)c1c(NC(=O)C(c2ccccc2)c2ccccc2)sc2c1C1CCN2CC1 | inconclusive: 32.6 µM [inhibitor, partial curve, poor fit] | – |
| CNC(=O)O/N=C/c1nn(C(=O)C(C)(C)C)cc1Br | – | inconclusive: 150% [activator] |
| C=CCn1c(O)c(C(C)=NCCc2c[nH]c3ccccc23)c(=O)[nH]c1=O | inconclusive: 20.6 µM [inhibitor, partial curve, poor fit] | – |
| C/C(=N\NC(=O)c1ccccc1O)c1c(O)n(C2CCCCC2)c(=O)[nH]c1=O | inconclusive: 29.1 µM [activator, single point] | – |
| O=[N+]([O-])c1ccc(Cl)c(Cl)c1Cl | – | inactive: 8.63% |
| CN(CC1COc2ccccc2O1)c1nc(-c2cccnc2)nc2ccccc12 (stereo unspecified) | active: 16.4 µM | – |
| O=C(CCCOc1ccc(Cl)cc1Cl)N1CCC2(CC1)OCCO2 | inconclusive: 18.4 µM [activator, single point] | – |
| CC(C)C(=O)Nc1ccc(N2CCN(C)CC2)c(F)c1 | – | inactive: 0% |
| Cc1ccc2c(c1)C1C[N+](C)(CC(=O)c3ccc(Cl)cc3Cl)CCC1N2C(=O)c1ccc(F)cc1 (stereo unspecified) | inconclusive: 11.6 µM [activator, single point] | – |

3 entries out of the list, ordered by number of heavy atoms, ascending:

| Compound | Potency | activity change, negative = inhibition |
| --- | --- | --- |
| C=C1C(=O)O[C@@H]2C[C@@H](C)[C@@H]3C=CC(=O)[C@@]3(C)[C@@H](O)[C@H]12 | active: 4.11 µM | – |
| O=C(CSCc1ccccc1)Nc1ccc2c(c1)OCO2 | inconclusive: 8.2 µM [activator, partial curve] | – |
| CN(CC1COc2ccccc2O1)c1nc(-c2cccnc2)nc2ccccc12 (stereo unspecified) | active: 16.4 µM | – |

More compounds:

| Compound | Potency | activity change, negative = inhibition |
| --- | --- | --- |
| O=c1c2ccccc2nc(/C=C/c2ccccc2O)n1-c1ccccc1O | active: 23.1 µM | – |
| CCC(=NCc1ccc2c(c1)OCO2)c1c(O)n(C2CCCCC2)c(=O)[nH]c1=O | active: 20.6 µM | – |
| COC(=O)C1=C(c2ccccc2OCc2ccccc2)C[C@@H]2CC[C@H]1N2C(=O)NCCOc1ccccc1 | inconclusive: 29.1 µM [inhibitor, single point] | – |
| COc1ccc2nc3oc(C(=O)N4CCC5(CC4)OCCO5)cc3cc2c1 | inconclusive: 29.1 µM [activator, single point] | – |
| O=P(Nc1ccccc1)(Nc1ccccc1)Oc1cccc(Cl)c1 | active: 16.4 µM | – |
| COc1cccc(-n2c(-c3ccoc3)nc3ccccc3c2=O)c1 | inconclusive: 29.1 µM [inhibitor, single point] | – |
| CNC(=O)c1cccn(Cc2ccc(C(F)(F)F)cc2)c1=O | inconclusive: 16.4 µM [activator, partial curve] | – |
| CCCCc1ccc(C(=O)O)nc1 | – | inactive: 11.8% |
| Cc1cc(Cl)ccc1OCC(=O)O | – | inactive: 10.8% |
| CN(C)C(=O)Oc1ccc(C(=O)c2ccccc2)cc1 | inconclusive: 16.4 µM [activator, partial curve] | – |
| Cc1cccc(OP(=O)(Oc2ccccc2)OC(c2ccccc2)C(F)(F)F)c1 (stereo unspecified) | inconclusive: 18.4 µM [inhibitor, single point] | – |
| CC(C)(C)OC(=O)c1c(N)n(Cc2ccco2)c2nc3ccccc3nc12 | inconclusive: 29.1 µM [inhibitor, single point] | – |
| CCC(C)n1c(O)c(C(c2ccccn2)c2c(O)n(C(C)CC)c(=S)[nH]c2=O)c(=O)[nH]c1=S (stereo unspecified) | – | inactive: 7.79% |
| CC(C)CCNC(=O)Cn1c(=O)oc2cc(S(=O)(=O)N3CCc4ccccc43)ccc21 | inconclusive: 23.1 µM [inhibitor, single point] | – |
| CN1C(=O)C(=Cc2cccnc2)C(=O)N(C)C1=O | – | inactive: -2.93% |
| O=C(Nc1nc2ccccc2n1CCN1CCCC1)c1ccc(Cl)cc1 | inconclusive: 11.2 µM [activator, partial curve] | – |
| COc1ccccc1CC(=O)N1CCN(CCc2ccccc2)CC1 | – | inactive: -6.08% |
| c1ccc(NC2=Nc3ccccc3CC2)cc1 | inconclusive: 14.6 µM [activator, partial curve] | – |
| COc1ccc(CCNCc2ccsc2)cc1OC | – | inactive: 9.48% |
| CC(Cc1ccccc1Sc1ccccc1O)N(C)C (stereo unspecified) | – | inactive: -4.11% |
| COC(=O)C1=C(c2ccc(-c3ccccc3)c(F)c2)C[C@@H]2CC[C@H]1N2C(=O)NCCOc1ccccc1 | inconclusive: 20.6 µM [inhibitor, single point] | – |
| COC(=O)[C@]1(C)N[C@H](CN(C)S(=O)(=O)c2ccc(-c3ccccc3)cc2)[C@@H]2C(=O)N(Cc3ccccc3)C(=O)[C@@H]21 | inconclusive: 29.1 µM [inhibitor, single point] | – |
| Cc1ccc2c(c1)C1CN(C)CCC1N2C(=O)c1cccs1 (stereo unspecified) | – | inactive: -1.21% |
